Measured values as given in patent publication US20260184815A1.
No constants are given. Whether binding was seen depends on the method and setting. Some binding calls cover weakened binding; strength is not graded here.

By UniProt entry, the sequences of proteins in these tests, tags left out. Where a name states a change or a piece, a line headed by the entry shows the natural chain unless it says otherwise.
UniProt P03952: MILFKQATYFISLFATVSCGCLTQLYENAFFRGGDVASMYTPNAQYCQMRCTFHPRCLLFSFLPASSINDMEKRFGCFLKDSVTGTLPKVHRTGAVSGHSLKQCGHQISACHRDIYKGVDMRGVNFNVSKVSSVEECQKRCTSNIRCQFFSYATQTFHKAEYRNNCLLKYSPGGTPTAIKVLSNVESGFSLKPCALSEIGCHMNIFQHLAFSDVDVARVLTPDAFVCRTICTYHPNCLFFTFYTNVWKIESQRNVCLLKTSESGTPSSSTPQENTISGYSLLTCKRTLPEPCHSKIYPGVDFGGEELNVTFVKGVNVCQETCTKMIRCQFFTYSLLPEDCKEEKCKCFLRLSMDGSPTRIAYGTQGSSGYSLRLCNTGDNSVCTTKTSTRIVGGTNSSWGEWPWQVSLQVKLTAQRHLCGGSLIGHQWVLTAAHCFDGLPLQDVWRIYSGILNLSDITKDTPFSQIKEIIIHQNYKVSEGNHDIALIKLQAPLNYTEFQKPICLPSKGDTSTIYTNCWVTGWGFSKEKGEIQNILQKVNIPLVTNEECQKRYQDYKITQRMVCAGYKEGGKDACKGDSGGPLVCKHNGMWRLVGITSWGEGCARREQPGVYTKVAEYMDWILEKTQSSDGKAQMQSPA

How the values were obtained:
[1] = biological target: human plasma kallikrein (human) (UniProt P03952); experiment: complex formed for the BIACORE SPR competition
[2] = biological target: human plasma kallikrein (human) (UniProt P03952); experiment: steady state enzyme kinetics, IgG

B1: EPI-KAL2 (designed binder)
chain: EAMHSFCAFKADDGPCRAAHPRWFFNIFTRQCEEFSYGGCGGNQNRFESLEECKKMCTRD
- binding [1]: binds

B2: X67-C03 (antibody, human IgG1, V domains shown)
VH: EVQLLESGGGLVQPGGSLRLSCAASGFTFSAYSMIWVRQAPGKGLEWVSYIRPSGGRTTYADSVKGRFTISRDNSKNTLYLQMNSLRAEDTAVYYCARGGLLLWMRELKSNYFDYWGQGTLVTVSS
VL: DIQMTQSPSSLSAFVGDRVTITCRASQPIDNYLNWYHQKPGKAPKLLIYAASRLQSGVPSRLSGSGFGTDFTLTISSLQPEDFGNYYCQQSYTVPYTFGGGTKVEIR
- binding [2]: binds
